# Test results taken from patent US10584341.
# By UniProt entry, the sequences of proteins in these tests, tags left out. Residues count along the entry.
# UniProt Q9NZQ7, 19-290: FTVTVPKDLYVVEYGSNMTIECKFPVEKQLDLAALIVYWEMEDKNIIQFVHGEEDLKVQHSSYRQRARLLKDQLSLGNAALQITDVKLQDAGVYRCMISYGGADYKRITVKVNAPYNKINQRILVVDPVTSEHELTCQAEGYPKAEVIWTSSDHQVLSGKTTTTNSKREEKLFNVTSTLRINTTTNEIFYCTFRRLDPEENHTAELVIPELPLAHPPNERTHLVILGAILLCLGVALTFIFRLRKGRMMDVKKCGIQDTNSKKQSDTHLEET
# Molecular target: PDL1 (CD274) on HOP92 cells (Homo sapiens) (UniProt Q9NZQ7)
# Assay: flow cytometry
# Conditions: 100 nM, stronger signal, text says HOP92 high PDL1 (figure legend says low), protein on the cell surface, protein details: endogenous, single-stranded DNA, variant of AP32 (62-nt)
sequence,measurement,value
ACGGGCCACATCAACTCATTGATAGACAATGCGTCCACTGCCCGT [aptPDL1 fluorescently labeled],binding result,binds

# Results from cells or extracts need not show a direct contact.
